# PubChem BioAssay AID1259308 – NCATS – 2017
# Assay: 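Candidate targets for better recombinant protein yield in mammalian cells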 (primary screen)
# Cells: human HEK293 embryonic kidney cells stably expressing firefly luciferase (HEK-CMV-Luc2-Hygro)
# Knock-down reagent: single siRNA against human genes, 0.8 pmol siRNA per well
# Duration: 72 h
# Detection: 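Reporter luminescence and viable-cell signal on separate replicate plates, given as percent of non-targeting control and median/MAD z-scores, plus per-cell luciferase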
# Scale: total luciferase, z-score: higher = more reporter protein produced
# Rule for the call: 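An siRNA counts as active if its total luciferase robust z-score exceeds 3; genes with two or more such siRNAs out of three were retested with fresh siRNAs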
# Calls: active = raised luciferase; inactive = no rise
# Shown is one part, drawn at random, of about 59,000 reagents tested. Over the whole deposit, about 1,510 (2.6%) got an active call. 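Calls use total luciferase alone and ignore viability, so some active siRNAs may act by altering cell number.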 Entries without a mark were called inactive. Reagents against one gene are numbered here. Further read-outs or replicates are left out here. Reagent sequences are not shown.
Gene,siRNA no.,"total luciferase, z-score"
LSM4,1,2.49
LSM4,2,2.14
LSM4,3,0.681
GDPD5 (glycerophosphodiester phosphodiesterase domain containing 5),1,0.475
GDPD5 (glycerophosphodiester phosphodiesterase domain containing 5),2,0.411
GDPD5 (glycerophosphodiester phosphodiesterase domain containing 5),3,4.08 (active)
SLC6A14,1,-0.239
SLC6A14,2,0.142
SLC6A14,3,-0.538
TBC1D9 (TBC1 domain family member 9),1,2.26
TBC1D9 (TBC1 domain family member 9),2,1.26
TBC1D9 (TBC1 domain family member 9),3,0.554
RPL21P20 (ribosomal protein L21 pseudogene 20),1,-0.403
RPL21P20 (ribosomal protein L21 pseudogene 20),2,-2.69
RPL21P20 (ribosomal protein L21 pseudogene 20),3,-2.79
ERCC6L2 (ERCC excision repair 6 like 2),1,0.909
ERCC6L2 (ERCC excision repair 6 like 2),2,-0.321
ERCC6L2 (ERCC excision repair 6 like 2),3,-1.02
ERCC6L2 (ERCC excision repair 6 like 2),4,-0.12
ERCC6L2 (ERCC excision repair 6 like 2),5,-2.16
ERCC6L2 (ERCC excision repair 6 like 2),6,-1.98

6 entries from above, set out differently:
{"Gene":"RPL21P20 (ribosomal protein L21 pseudogene 20)","siRNA no.":1,"total luciferase, z-score":-0.403}
{"Gene":"RPL21P20 (ribosomal protein L21 pseudogene 20)","siRNA no.":2,"total luciferase, z-score":-2.69}
{"Gene":"RPL21P20 (ribosomal protein L21 pseudogene 20)","siRNA no.":3,"total luciferase, z-score":-2.79}
{"Gene":"ERCC6L2 (ERCC excision repair 6 like 2)","siRNA no.":1,"total luciferase, z-score":0.909}
{"Gene":"ERCC6L2 (ERCC excision repair 6 like 2)","siRNA no.":2,"total luciferase, z-score":-0.321}
{"Gene":"ERCC6L2 (ERCC excision repair 6 like 2)","siRNA no.":3,"total luciferase, z-score":-1.02}

More results:
Gene,siRNA no.,"total luciferase, z-score"
ZNF180 (zinc finger protein 180),1,0.678
ZNF180 (zinc finger protein 180),2,-0.83
ZNF180 (zinc finger protein 180),3,-0.207
LAMP3 (lysosome associated membrane protein 3),1,2.86
LAMP3 (lysosome associated membrane protein 3),2,0.336
LAMP3 (lysosome associated membrane protein 3),3,1.11
GATA1 (GATA binding protein 1),1,3.38 (active)
GATA1 (GATA binding protein 1),2,-1.23
GATA1 (GATA binding protein 1),3,-0.117
ALAS1 (5'-aminolevulinate synthase 1),1,0.51
ALAS1 (5'-aminolevulinate synthase 1),2,0.166
ALAS1 (5'-aminolevulinate synthase 1),3,-0.489
TMEM50B (transmembrane protein 50B),1,2.34
TMEM50B (transmembrane protein 50B),2,0.807
TMEM50B (transmembrane protein 50B),3,-0.526
HIP1R (huntingtin interacting protein 1 related),1,-2.3
HIP1R (huntingtin interacting protein 1 related),2,1.15
HIP1R (huntingtin interacting protein 1 related),3,0.941
RGPD4-DT (RGPD4 divergent transcript),1,-0.362
RGPD4-DT (RGPD4 divergent transcript),2,-0.0302
RGPD4-DT (RGPD4 divergent transcript),3,0.718
CCBE1 (collagen and calcium binding EGF domains 1),1,-1.18
CCBE1 (collagen and calcium binding EGF domains 1),2,-1.21
CCBE1 (collagen and calcium binding EGF domains 1),3,0.457
MYBBP1A (MYB binding protein 1a),1,-0.225
MYBBP1A (MYB binding protein 1a),2,-0.729
MYBBP1A (MYB binding protein 1a),3,0.414
SACK1H (scaffolding CK1 anchoring protein H),1,-1.91
SACK1H (scaffolding CK1 anchoring protein H),2,-0.513
SACK1H (scaffolding CK1 anchoring protein H),3,-0.38
ZNF766 (zinc finger protein 766),1,0.144
ZNF766 (zinc finger protein 766),2,-0.328
ZNF766 (zinc finger protein 766),3,0.0396
GOLGA2P11 (GOLGA2 pseudogene 11),1,-1.27
GOLGA2P11 (GOLGA2 pseudogene 11),2,0.146
GOLGA2P11 (GOLGA2 pseudogene 11),3,0.0763
